This passage reports binding results from publication PMC7596570.

By UniProt entry, the sequences of proteins in these tests, tags left out. Residues count along the entry.
UniProt O14763, residues 56-440: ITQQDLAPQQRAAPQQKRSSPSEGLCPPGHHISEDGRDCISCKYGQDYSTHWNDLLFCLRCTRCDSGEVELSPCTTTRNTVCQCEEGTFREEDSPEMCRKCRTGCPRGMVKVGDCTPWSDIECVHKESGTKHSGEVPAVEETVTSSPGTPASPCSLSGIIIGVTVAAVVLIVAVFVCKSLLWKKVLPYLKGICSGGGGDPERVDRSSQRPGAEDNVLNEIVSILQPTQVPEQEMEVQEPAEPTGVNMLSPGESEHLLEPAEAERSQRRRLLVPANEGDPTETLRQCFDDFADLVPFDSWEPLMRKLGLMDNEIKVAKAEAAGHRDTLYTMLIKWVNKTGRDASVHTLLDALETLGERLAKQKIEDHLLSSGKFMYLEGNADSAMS
UniProt Q13158: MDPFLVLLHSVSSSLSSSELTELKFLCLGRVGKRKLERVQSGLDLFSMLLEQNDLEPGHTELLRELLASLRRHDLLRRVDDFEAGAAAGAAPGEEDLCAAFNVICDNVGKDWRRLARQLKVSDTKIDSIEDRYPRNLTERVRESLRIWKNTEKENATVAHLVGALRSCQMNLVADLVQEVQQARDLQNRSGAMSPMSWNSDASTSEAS

The target of this assay is TRAIL Death Receptor 5 (DR5) (human (endogenous in HCT116)) (UniProt O14763). Put plainly: co-IP; DR5-DISC IP: AMG 655 (agonistic anti-DR5 antibody)-conjugated Dynabeads added to HCT116 cells (untransfected, or transfected with FLAG-RALB constructs, or SC/siRALB) for the indicated times (1 h, 3 h); lysis in 0.2% NP-40, 20 mM Tris, 150 mM NaCl, 10% glycerol, pH 7.4; beads captured magnetically, western blot.

No constants are given. Whether binding was seen depends on the method and setting. In cells and extracts the contact can be indirect. Some results given as binding are weak or reduced against the parent protein; the word gives no strength.

FADD (from UniProt Q13158 1-208): the binding entry is recorded as “binds”.
